Experimental data: patent publication US20060035359A1
No constants are given. Whether binding was seen depends on the method and setting. Binding seen in cells or lysates may run through a third protein. Some entries that bind do so weakly or less than the wild type.

Protein sequences, listed by entry. Tags and fused reporters are not part of them.
UniProt O15392: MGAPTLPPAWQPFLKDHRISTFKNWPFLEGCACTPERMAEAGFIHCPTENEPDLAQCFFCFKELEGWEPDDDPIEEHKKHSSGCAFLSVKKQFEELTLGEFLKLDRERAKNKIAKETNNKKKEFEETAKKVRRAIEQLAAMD

Biological target: GST-Survivin (human) (UniProt O15392)
Test: GST pull-down on glutathione beads, SDS-PAGE and fluorography

B1: 35S-labeled in vitro translated (IVT) SBP1 protein (protein)
chain: MEHYRKAGSVELPAPSPMPQLPPDTLEMRVRDGSKIRNLLGLALGRLEGGSARHVVFSGSGRAAGKAVSCAEIVKRRVPGLHQLTKLRFLQTEDSWVPASPDTGLDPLTVRRHVPAVWVLLSRDPLDPNECGYQPPGAPPGLGSMPSSSCGPRSRRRARDTRS
modifications: 35S label
For B1, the binding was “binds”.
